PubChem BioAssay AID2551 (National Center for Advancing Translational Sciences (NCATS), 2010)
Out of some 310,000 compounds screened, about 17,000 (5.5%) were called active. Inconclusive means that the source gave no clear call. Such entries were picked first, then a sample of the others. Calls come from the whole dose curve; as a rule, active = well fitted inhibition curve with a large enough effect; inconclusive = small, poorly fitted or top-dose-only effect, or effect the other way; inactive = no such curve, though single readings can be large or run the other way. A potency beside an inconclusive call is a rough fit, not a confirmed value.

By UniProt entry, the sequences of proteins in these tests, tags left out. Where a name states a change or a piece, a line headed by the entry shows the natural chain unless it says otherwise.
UniProt P51450: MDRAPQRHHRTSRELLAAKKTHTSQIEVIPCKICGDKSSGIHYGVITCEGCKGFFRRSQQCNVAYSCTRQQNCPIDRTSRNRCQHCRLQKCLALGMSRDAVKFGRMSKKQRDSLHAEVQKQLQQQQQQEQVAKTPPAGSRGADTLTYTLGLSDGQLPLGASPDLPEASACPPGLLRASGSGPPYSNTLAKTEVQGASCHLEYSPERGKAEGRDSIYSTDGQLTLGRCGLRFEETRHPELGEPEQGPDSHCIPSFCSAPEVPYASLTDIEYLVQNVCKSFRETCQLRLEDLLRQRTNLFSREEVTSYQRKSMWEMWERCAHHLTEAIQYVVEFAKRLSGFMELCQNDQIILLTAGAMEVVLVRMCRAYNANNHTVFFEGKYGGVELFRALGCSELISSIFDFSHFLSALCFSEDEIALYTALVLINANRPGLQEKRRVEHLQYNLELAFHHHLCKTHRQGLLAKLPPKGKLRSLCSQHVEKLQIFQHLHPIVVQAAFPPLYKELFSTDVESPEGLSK

molecular target: Nuclear receptor ROR-gamma (Mus musculus) (UniProt P51450); assay: qHTS for inhibitors of ROR gamma transcriptional activity; settings: Drosophila S2 Gal4-RORgamma UAS-luciferase reporter, 20 h; activity change, negative = inhibition: at 53.6 µM (top of the series); note: nearly all actives have a fitted effect of over 60% in size
Summary of the method: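 In this cell-based reporter format, copper sulfate (700 uM final) drives Gal4–ROR gamma fusion expression from a metallothionein promoter in Drosophila Schneider cells; compounds preincubated 1 hr, reporter read after 20 hr at ambient temperature.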
% is set by controls: 0 for no effect and ±100 for the full control effect; potency is the fitted concentration of half-maximal effect.

| SMILES | activity change, negative = inhibition | Potency |
| --- | --- | --- |
| CCOC(=O)CN1C(=O)N[C@H](c2ccc(Br)cc2)C(C(C)=O)=C1C | inactive: 29.5% | – |
| COc1ccc(N2CCN(C(=O)CC34CC5CC(CC(C5)C3)C4)CC2)c([N+](=O)[O-])c1 | – | inconclusive: 35.5 µM [activator, single point] |
| Cc1ccc(C(=O)Nc2cc3c(cc2N2CCCCC2)n(C)c(=O)n3C)cc1 | – | inconclusive: 2.82 µM [inhibitor, full curve] |
| CN(C)c1ccc(-c2nc(NCCN3CCOCC3)c3ccccc3n2)cc1 | – | inconclusive: 25.1 µM [inhibitor, single point] |
| CC(C)COP(=O)(OCC(C)C)C(Nc1ccccc1)c1ccc2c(c1)OCO2 (centres undefined) | – | inconclusive: 15.8 µM [activator, single point] |
| Cc1ccc(NC(=S)N2CCC(c3nc4ccccc4s3)CC2)cc1 | – | inconclusive: 35.5 µM [inhibitor, single point] |
| S=C(Nc1ccccc1)Nc1ccc(OCc2ccc(Cl)cc2Cl)cc1 | – | active: 1.41 µM |
| CCn1c(CC(=O)Nc2cccc(OC)c2)nnc1SCC(=O)Nc1nccs1 | – | inconclusive: 35.5 µM [activator, single point] |
| COc1ccc(CNS(=O)(=O)c2ccc3c(c2)CC(C)N3C(=O)C2CC2)cc1 (centres undefined) | – | inconclusive: 35.5 µM [inhibitor, single point] |
| CN(C)C=Nc1nonc1N | – | inconclusive: 0.282 µM [activator, single point] |
| CC(=O)Nc1ccc(S(=O)(=O)NNC(=O)C2CCCCC2)cc1 | inactive: -38.2% | – |
| COc1cc(/C=N/Nc2nc3ccccc3s2)ccc1OC(=O)c1ccccc1F | – | inconclusive: 35.5 µM [inhibitor, single point] |
| COc1cc(NC(=O)CNC(=O)Cn2c(C)cc3ccccc3c2=O)cc(OC)c1OC | – | inconclusive: 31.6 µM [activator, single point] |
| CC1CCN(c2ccc(-c3cccc(NC(=O)C(F)(F)F)c3)nn2)CC1 | – | inconclusive: 10 µM [inhibitor, partial curve, poor fit] |
| COc1ccccc1P(=O)(Cc1ccccc1[N+](=O)[O-])c1ccccc1 (centres undefined) | inactive: 10.5% | – |
| c1ccc(NCc2nc(-c3ccccc3)no2)cc1 | – | inconclusive: 1.41 µM [activator, partial curve] |
| CC(C)=CCc1c2c(c3occ(-c4ccc(O)cc4)c(=O)c3c1O)C=CC(C)(C)O2 | – | inconclusive: 35.5 µM [inhibitor, single point] |
| CCC(C)NS(=O)(=O)c1ccc(S(=O)(=O)N2CC=C(c3ccc(F)cc3)CC2)cc1 (centres undefined) | – | inconclusive: 35.5 µM [activator, single point] |
| Cc1ccc(C)c(C(=O)NCc2ccncc2)c1 | – | inconclusive: 35.5 µM [inhibitor, single point] |
| O=C(Nc1ccc(N2CCOCC2)cc1)Nc1ccc2nc(-c3ccco3)c(-c3ccco3)nc2c1 | – | inconclusive: 31.6 µM [inhibitor, single point] |
| O=C(Nc1ccc(Cl)cc1)Nc1cccc(C(=O)O)c1 | – | active: 3.16 µM |
| CCOc1cccc(C(=O)Nc2cccc(C(=O)NCC(C)C)c2)c1 | inactive: 36.6% | – |
| COc1cc(C(=O)Nc2nc3ccc(C)cc3s2)ccc1OCc1c(C)noc1C | inactive: -9.74% | – |

Random excerpt: 3 compounds from above, in no set order.

| SMILES | activity change, negative = inhibition | Potency |
| --- | --- | --- |
| COc1ccccc1P(=O)(Cc1ccccc1[N+](=O)[O-])c1ccccc1 (centres undefined) | inactive: 10.5% | – |
| CC(C)=CCc1c2c(c3occ(-c4ccc(O)cc4)c(=O)c3c1O)C=CC(C)(C)O2 | – | inconclusive: 35.5 µM [inhibitor, single point] |
| CC(=O)Nc1ccc(S(=O)(=O)NNC(=O)C2CCCCC2)cc1 | inactive: -38.2% | – |

Further entries:

| SMILES | activity change, negative = inhibition | Potency |
| --- | --- | --- |
| COc1cccc(-c2nc(CS(=O)(=O)CC(=O)NCCC(C)C)c(C)o2)c1 | – | inconclusive: 0.126 µM [activator, full curve, poor fit] |
| N#Cc1cccc(-c2nccc(NCc3ccccc3)n2)c1 | – | inconclusive: 35.5 µM [activator, single point] |
| CCc1ccc2[nH]c(O)c(N=Nc3nc(-c4ccccc4)cs3)c2c1 | – | active: 12.6 µM |
| c1ccc(-c2nc(N3CCCCCC3)nc(-n3ccnc3)n2)cc1 | – | inconclusive: 1.41 µM [inhibitor, full curve] |
| O=C(CCCc1ccccc1)Nc1ccc2c(c1)OCCO2 | – | inconclusive: 11.2 µM [inhibitor, single point] |
| Cc1ccc(-c2ccnc(=S)[nH]2)cc1 | – | active: 2.82 µM |
| Cc1ccc(C(=O)N/N=C\c2ccc(-c3ccc(Cl)cc3)o2)cn1 | – | active: 2.51 µM |
| Cc1ccc(Cc2cnc(N3C(=N)SC(C)C3=O)s2)cc1 (centres undefined) | – | active: 5.01 µM |
| O=C(CC(Nc1ccc(Cl)cc1Cl)C(=O)O)c1ccccc1 (centres undefined) | – | active: 12.6 µM |
| COc1ccc(C(=O)NCC2(c3ccccc3)CCOCC2)cc1 | – | inconclusive: 6.31 µM [activator, single point] |
| CC(C)Cc1nn2c(N)c(/C=C3\C=Nc4ccccc43)c(=O)nc2s1 | – | inconclusive: 35.5 µM [inhibitor, single point] |
| Cc1ccc(-c2c3c(=O)n(C)c(=O)n(C)c3cn2Cc2cccnc2)cc1 | – | inconclusive: 1.26 µM [inhibitor, single point] |
| CCNC(=O)c1sc(=S)n(CC)c1N | – | inconclusive: 10 µM [inhibitor, partial curve, poor fit] |
| CC(=O)N1CCOc2ccc(S(=O)(=O)Nc3cccc(C)c3)cc21 | – | inconclusive: 35.5 µM [activator, single point] |
| CC(=O)c1sc(NC(=O)c2cccs2)nc1C | – | inconclusive: 1.26 µM [activator, full curve, poor fit] |
| CCOC(=O)c1cc2sc(C)cc2n1CC(=O)N1CCN(C(=O)c2ccco2)CC1 | – | inconclusive: 12.6 µM [activator, single point] |
| C[C@]12C(=O)N(c3ccc(F)cc3)C(=O)N1[C@@H]1c3ccccc3OC[C@@H]1[C@H]2c1ccccc1 | inactive: 4.26% | – |
| Cc1[nH]c2ccccc2c1C(=O)COC(=O)c1c(-c2c(F)cccc2Cl)noc1C | inactive: 58.9% | – |
| CS(=O)(=O)N1CCN(c2ccc([N+](=O)[O-])c(NCc3cccnc3)c2)CC1 | inactive: 17.8% | – |
| O=C(c1ccccc1)c1c(O)nc(-c2ccccc2)n(-c2ccccc2)c1=O | – | inconclusive: 10 µM [activator, partial curve] |
| O=C(c1noc2c1CCCC2)N1CCN(c2ccccc2)CC1 | inactive: 26.9% | – |
| Cc1ccc(C)c(N2CCN(S(=O)(=O)c3ccc(-c4ccc(=O)[nH]n4)o3)CC2)c1 | – | inconclusive: 35.5 µM [inhibitor, single point] |
| COc1ccc2c(c1)C(=NN)c1cc(OC)ccc1-2 | – | inconclusive: 15.8 µM [activator, partial curve] |

| SMILES | activity change, negative = inhibition | Potency |
| --- | --- | --- |
| O=C(CCl)N(c1ccccc1)c1ccccc1 | – | active: 14.1 µM |
| CCC(C)(C)NC(=O)c1cc([N+](=O)[O-])ccc1N1CCOCC1 | inactive: -4.51% | – |
| O=C(CSc1ccc(Cl)cc1)N1CCN(c2ccc([N+](=O)[O-])cc2Cl)CC1 | – | inconclusive: 15.8 µM [activator, single point] |
| COC(=O)c1cccc(NC(=S)NCCC2=CCCCC2)c1 | – | active: 3.16 µM |
| C=CCn1c(SCC(=O)Nc2sccc2C(N)=O)nc2ccccc2c1=O | – | inconclusive: 35.5 µM [inhibitor, single point] |
| S=C1CCSc2ccc(Cl)cc2N1 | – | active: 3.98 µM |
| O=C(Nc1ccccn1)c1cc(-c2cccc(Cl)c2)nc2ccccc12 | – | inconclusive: 22.4 µM [inhibitor, single point] |
| O=NC1=C(c2c(O)[nH]c3ccccc23)CCCC1 | inactive: -12% | – |
| CSc1cccc(NS(=O)(=O)c2ccc(C(C)=O)cc2)c1 | – | inconclusive: 12.6 µM [activator, partial curve] |
| CCOC(=O)c1sc2nc3c(SCCC(=O)O)cc(C(=O)c4cc(OC)ccc4O)cn3c(=O)c2c1C | – | inconclusive: 3.98 µM [inhibitor, full curve, poor fit] |
| O=C(c1cccc(C(=O)N2CCN(c3ccccc3F)CC2)n1)N1CCN(c2ccccc2F)CC1 | – | inconclusive: 35.5 µM [activator, single point] |
| CCC1C(=O)CC(c2ccc([N+](=O)[O-])cc2)NC1c1ccc([N+](=O)[O-])cc1 (centres undefined) | – | inconclusive: 11.2 µM [activator, single point] |
| CCOc1ccc(NC(=O)CC2C(=O)N(c3ccc(OC)cc3)C(=O)N2CCc2ccc(OC)c(OC)c2)cc1 (centres undefined) | – | inconclusive: 14.1 µM [activator, single point] |
| COC(=O)CSc1nnc2c3c4c(sc3nc(-n3nc(C)cc3C)n12)COC(C)(C)C4 | inactive: 6.01% | – |
| O=C(Nc1cc([N+](=O)[O-])ccc1N1CCOCC1)c1cccs1 | – | inconclusive: 5.62 µM [activator, partial curve, poor fit] |
| C/C(=N\NC(=S)Nc1ccc(C(C)C)cc1)c1ccc2c(c1)OCO2 | – | active: 6.31 µM |
| Cc1nn(Cc2ccc(Cl)cc2)c(C)c1NC(=O)c1ccc([N+](=O)[O-])cc1 | – | inconclusive: 6.31 µM [inhibitor, single point] |
| COc1ccc(/C=C/C(=O)NC(=S)Nc2ccccn2)cc1 | – | inconclusive: 7.08 µM [inhibitor, partial curve] |
| O=C(Nc1ccc(N2CCOCC2)nc1N1CCOCC1)c1cccc(C(F)(F)F)c1 | inactive: 25.1% | – |
| Cc1ccc(OCc2ccc(C(=O)N3CCCC3)o2)cc1C | – | inconclusive: 15.8 µM [activator, single point] |
| Cc1ccc(C(=O)N(C)CC(=O)Nc2ccc(F)c(F)c2F)o1 | inactive: 14.5% | – |
| CC(C)CC(=O)C1CCCN(C(=O)c2ccc3oc(Cc4ccccc4)nc3c2)C1 (centres undefined) | – | inconclusive: 11.2 µM [activator, partial curve] |
| CC(NC(=O)COc1ccc(-c2nnco2)cc1)c1ccc(Cl)cc1Cl (centres undefined) | – | inconclusive: 10 µM [activator, partial curve, poor fit] |
